PubChem BioAssay AID1671195 – Yale University | 2021
Here is a random part of about 22,000 reagents. Of all reagents, about 1,510 (6.9%) are marked active. 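Active includes knockdowns raising or lowering LDL uptake; positive z-scores mean more uptake, negative mean less.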

Screen: 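Knockdowns that increase or decrease uptake of fluorescent LDL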 (primary screen)
Cells: human Huh7 hepatoma cells
Reagents: siRNA pool against human genes, 18 nM
Duration: about 2 to 2.5 days of knockdown, then 8 h LDL uptake
Treatment: DiI-labelled LDL at 30 µg/ml for 8 h, in lipoprotein-deficient serum medium
Measured: 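Per-cell DiI-LDL intensity by automated imaging; well means scaled to the plate median and given as a robust z-score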
Reading the numbers: robust z-score: higher = more LDL uptake after knockdown
Active means: 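a gene counts as active if at least two replicate z-scores exceed ±2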

Silencing of LOC441815 (retired record) (GeneID 441815) [SID442903875] resulted in: robust z-score, replicate 1 = -1.63; robust z-score, replicate 2 = -1.19; robust z-score, replicate 3 = -1.43; inactive.
Knock-down of TPGS1 (GeneID 91978) [SID442897482] resulted in: robust z-score, replicate 1 = -1.07; robust z-score, replicate 2 = -0.0666; robust z-score, replicate 3 = -0.0306; inactive.
With knock-down of TCL1B (GeneID 9623) [SID442902038], the screen gave robust z-score, replicate 1 = -1.16; robust z-score, replicate 2 = -0.641; robust z-score, replicate 3 = -1.2; inactive.
After knock-down of LOC389182 (retired record) (GeneID 389182) [SID442889364], the screen gave robust z-score, replicate 1 = 1.12; robust z-score, replicate 2 = 0.428; robust z-score, replicate 3 = 0.163; inactive.
LOC388206 (retired record) (GeneID 388206) [SID442900075] showed robust z-score, replicate 1 = -0.699; robust z-score, replicate 2 = -0.779; robust z-score, replicate 3 = -0.648; inactive.
LOC389710 (retired record) (GeneID 389710) [SID442896057] scored robust z-score, replicate 1 = -0.339; robust z-score, replicate 2 = -0.256; robust z-score, replicate 3 = -0.106; inactive.
After knock-down of ZNF252P (GeneID 286101) [SID442887700] the results were robust z-score, replicate 1 = 0.854; robust z-score, replicate 2 = 0.751; robust z-score, replicate 3 = 0.973; inactive.
Silencing of FANCD2 (GeneID 2177) [SID442897153] resulted in: robust z-score, replicate 1 = -0.843; robust z-score, replicate 2 = 0.276; robust z-score, replicate 3 = -0.492; inactive.
Against DPPA5P4 (GeneID 646701) [SID442887569], the entry reads robust z-score, replicate 1 = 0.712; robust z-score, replicate 2 = 0.649; robust z-score, replicate 3 = 1.29; inactive.
With knock-down of PCDH15 (GeneID 65217) [SID442888221], the screen gave robust z-score, replicate 1 = 0.368; robust z-score, replicate 2 = 0.8; robust z-score, replicate 3 = 1.12; inactive.
For PCDH15 (GeneID 65217) [SID442894243], the values are robust z-score, replicate 1 = -0.0837; robust z-score, replicate 2 = -0.126; robust z-score, replicate 3 = 0.0842; inactive.
After knock-down of DNAJC4 (GeneID 3338) [SID442894799] the results were robust z-score, replicate 1 = -0.0356; robust z-score, replicate 2 = -0.0951; robust z-score, replicate 3 = -0.174; inactive.
Against UQCRC2 (GeneID 7385) [SID442899175] the deposit lists robust z-score, replicate 1 = -0.391; robust z-score, replicate 2 = -0.773; robust z-score, replicate 3 = -0.598; inactive.
RIC1 (GeneID 57589) [SID442884200] showed robust z-score, replicate 1 = 0.554; robust z-score, replicate 2 = 2.18; robust z-score, replicate 3 = 2.45; active.
Against MEIS3 (GeneID 56917) [SID442891340], the entry reads robust z-score, replicate 1 = 0.345; robust z-score, replicate 2 = -0.166; robust z-score, replicate 3 = 0.716; inactive.
After knock-down of NDUFS3 (GeneID 4722) [SID442895284] the results were robust z-score, replicate 1 = 0.194; robust z-score, replicate 2 = -0.242; robust z-score, replicate 3 = -0.412; inactive.
ABCG4 (GeneID 64137) [SID442891267] gave robust z-score, replicate 1 = 0.303; robust z-score, replicate 2 = 0.251; robust z-score, replicate 3 = 0.37; inactive.
LOC440941 (retired record) (GeneID 440941) [SID442893461] gave robust z-score, replicate 1 = 0.221; robust z-score, replicate 2 = 0.1; robust z-score, replicate 3 = -0.179; inactive.
Depletion of LOC401132 (retired record) (GeneID 401132) [SID442888370] came out at: robust z-score, replicate 1 = 0.768; robust z-score, replicate 2 = 0.696; robust z-score, replicate 3 = 0.733; inactive.
Knock-down of POU2F3 (GeneID 25833) [SID442903962] came out at: robust z-score, replicate 1 = -1.34; robust z-score, replicate 2 = -1.72; robust z-score, replicate 3 = -1.28; inactive.
Silencing of BTN3A2 (GeneID 11118) [SID442894761] gave: robust z-score, replicate 1 = -0.0987; robust z-score, replicate 2 = -0.332; robust z-score, replicate 3 = 0.137; inactive.
LOC90462 (retired record) (GeneID 90462) [SID442899410] scored robust z-score, replicate 1 = -0.406; robust z-score, replicate 2 = -0.568; robust z-score, replicate 3 = -0.876; inactive.
Silencing of ATP4B (GeneID 496) [SID442884860] came out at: robust z-score, replicate 1 = 2.22; robust z-score, replicate 2 = 1.45; robust z-score, replicate 3 = 1.83; inactive.
With knock-down of NSFL1C (GeneID 55968) [SID442893599] the results were robust z-score, replicate 1 = -0.0445; robust z-score, replicate 2 = 0.0988; robust z-score, replicate 3 = 0.0395; inactive.

Ordered by “robust z-score, replicate 3” (highest first): 2 of the entries above
DPPA5P4 (GeneID 646701) [SID442887569] | robust z-score, replicate 1 = 0.712; robust z-score, replicate 2 = 0.649; robust z-score, replicate 3 = 1.29; Outcome = inactive
FANCD2 (GeneID 2177) [SID442897153] | robust z-score, replicate 1 = -0.843; robust z-score, replicate 2 = 0.276; robust z-score, replicate 3 = -0.492; Outcome = inactive
